Laboratory results published in PMC3492142.
These are yes or no findings as the source states them, for the method shown. Binding seen in cells or lysates may run through a third protein. Some entries that bind do so weakly or less than the wild type.

Chains of the proteins cited; added tags and fusions are not shown. Lines headed by an entry give the natural chain unless they say otherwise; changes in a name come on top. A line that says so, or that is headed by a name, gives the form on record, which may keep a tag or linker.
UniProt P08134: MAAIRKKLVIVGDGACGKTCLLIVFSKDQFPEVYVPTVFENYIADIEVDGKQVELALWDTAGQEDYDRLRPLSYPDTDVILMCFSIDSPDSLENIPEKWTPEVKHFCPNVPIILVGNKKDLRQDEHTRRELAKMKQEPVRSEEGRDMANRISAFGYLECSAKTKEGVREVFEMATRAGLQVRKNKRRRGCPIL
constitutively active form of RhoC (RhoC-V14) (P08134, form named): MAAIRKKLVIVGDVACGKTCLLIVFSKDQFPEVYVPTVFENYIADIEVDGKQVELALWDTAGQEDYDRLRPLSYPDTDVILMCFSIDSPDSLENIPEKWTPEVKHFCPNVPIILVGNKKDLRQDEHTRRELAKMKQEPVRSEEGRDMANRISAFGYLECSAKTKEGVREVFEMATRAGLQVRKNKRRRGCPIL
UniProt P46940: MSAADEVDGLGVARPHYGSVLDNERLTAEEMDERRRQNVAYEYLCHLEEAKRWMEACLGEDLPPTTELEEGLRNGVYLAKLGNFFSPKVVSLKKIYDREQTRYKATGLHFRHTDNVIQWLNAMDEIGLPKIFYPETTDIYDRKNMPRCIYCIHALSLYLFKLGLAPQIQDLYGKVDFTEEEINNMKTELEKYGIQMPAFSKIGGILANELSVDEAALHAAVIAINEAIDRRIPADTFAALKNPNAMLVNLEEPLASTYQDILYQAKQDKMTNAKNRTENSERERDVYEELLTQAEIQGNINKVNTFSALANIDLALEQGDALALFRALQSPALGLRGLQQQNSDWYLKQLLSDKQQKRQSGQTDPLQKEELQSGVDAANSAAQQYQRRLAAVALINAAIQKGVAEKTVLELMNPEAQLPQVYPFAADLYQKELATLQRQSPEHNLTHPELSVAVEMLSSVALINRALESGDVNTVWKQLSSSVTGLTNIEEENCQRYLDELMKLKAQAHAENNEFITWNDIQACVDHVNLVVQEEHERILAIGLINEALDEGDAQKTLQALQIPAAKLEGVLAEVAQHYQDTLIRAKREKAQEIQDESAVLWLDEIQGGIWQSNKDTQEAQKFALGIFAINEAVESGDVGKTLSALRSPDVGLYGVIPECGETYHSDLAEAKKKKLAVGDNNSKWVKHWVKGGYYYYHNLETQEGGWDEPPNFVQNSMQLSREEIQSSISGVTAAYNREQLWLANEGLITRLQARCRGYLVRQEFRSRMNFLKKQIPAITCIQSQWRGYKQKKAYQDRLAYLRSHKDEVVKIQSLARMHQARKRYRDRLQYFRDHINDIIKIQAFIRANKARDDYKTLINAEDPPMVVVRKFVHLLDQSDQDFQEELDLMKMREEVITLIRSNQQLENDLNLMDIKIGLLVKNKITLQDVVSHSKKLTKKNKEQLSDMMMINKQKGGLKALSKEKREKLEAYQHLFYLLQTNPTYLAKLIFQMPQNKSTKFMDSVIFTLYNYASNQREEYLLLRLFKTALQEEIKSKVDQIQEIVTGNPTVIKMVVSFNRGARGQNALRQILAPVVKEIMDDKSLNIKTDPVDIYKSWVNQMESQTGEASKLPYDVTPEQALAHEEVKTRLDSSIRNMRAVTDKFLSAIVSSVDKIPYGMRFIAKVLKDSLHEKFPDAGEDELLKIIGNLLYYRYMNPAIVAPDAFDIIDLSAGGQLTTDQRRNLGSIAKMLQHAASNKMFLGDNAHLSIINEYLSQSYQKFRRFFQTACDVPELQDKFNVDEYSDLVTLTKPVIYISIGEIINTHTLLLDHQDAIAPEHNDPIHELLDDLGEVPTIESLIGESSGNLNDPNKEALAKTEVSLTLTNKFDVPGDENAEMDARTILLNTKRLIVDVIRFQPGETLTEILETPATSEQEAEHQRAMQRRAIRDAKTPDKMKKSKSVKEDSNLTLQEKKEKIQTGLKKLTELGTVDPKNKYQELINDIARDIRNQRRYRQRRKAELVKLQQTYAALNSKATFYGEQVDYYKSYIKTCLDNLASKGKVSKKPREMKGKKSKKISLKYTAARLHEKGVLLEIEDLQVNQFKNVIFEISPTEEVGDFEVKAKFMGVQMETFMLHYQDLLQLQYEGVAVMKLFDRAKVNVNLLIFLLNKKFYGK

Target: constitutively active form of RhoC (RhoC-V14) (UniProt P08134)
Test: co-IP; BGC-823 and COS-7 cells co-infected with Ad-IQGAP1 or Ad-IQGAP1-C and Ad-RhoC-V14 for 48 h; lysed with RIPA buffer; immunoprecipitation with anti-RhoC or anti-IQGAP1 antibody or isotype-matched IgG; Western blot with anti-IQGAP1 or anti-RhoC antibody

## full length IQGAP1 (IQ-domain GTPase-activating protein 1) (from UniProt P46940 1-1657)
  binding: binds
